Assay results taken from the supplement of paper PMC8728848.
This is one part of the list.

Legend:
Experiment in all cases: glycan array binding signal (z-score within array); higher = stronger binding
Details in all cases: glycan notation: IUPAC condensed, linker removed
[1] = target: GlcNAc(b1-3)Gal(b1-4)GlcNAc(b1-3)Gal(b1-4)GlcNAc(b1-3)Gal(b1-4)GlcNAc(b1-3)Gal(b1-4)GlcNAc(b1-2)[GlcNAc(b1-3)Gal(b1-4)GlcNAc(b1-3)Gal(b1-4)GlcNAc(b1-3)Gal(b1-4)GlcNAc(b1-3)Gal(b1-4)GlcNAc(b1-6)]Man(a1-6)[GlcNAc(b1-3)Gal(b1-4)GlcNAc(b1-3)Gal(b1-4)GlcNAc(b1-3)Gal(b1-4)GlcNAc(b1-3)Gal(b1-4)GlcNAc(b1-2)Man(a1-3)]Man(b1-4)GlcNAc(b1-4)[Fuc(a1-6)]GlcNAc
Outline: (§1)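 Glycan array binding is given as a within-array Z-score, which can be read as non-binding when negative. The arrays, 3228 of them, came from the Consortium for Functional Glycomics database and were retained only where the protein sequence was available. Z-scores were averaged across arrays of the same protein sequence at different concentrations or buffers and across linkers.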

[2] = target: GlcNAc(b1-3)Gal(b1-4)GlcNAc(b1-3)Gal(b1-4)GlcNAc(b1-3)GalNAc
Outline: as §1

[3] = target: GlcNAc(b1-3)Gal(b1-4)GlcNAc(b1-3)GalNAc
Outline: as §1

[4] = target: GlcNAc(b1-3)Gal(b1-4)GlcNAc(b1-3)[GlcNAc(b1-3)Gal(b1-4)GlcNAc(b1-3)]GalNAc
Outline: as §1

[5] = target: GlcNAc(b1-3)Gal(b1-4)GlcNAc(b1-6)[Gal(b1-3)]GalNAc
Outline: as §1

[6] = target: GlcNAc(b1-3)Gal(b1-4)GlcNAc(b1-6)[GlcNAc(b1-3)Gal(b1-3)]GalNAc
Outline: as §1

[7] = target: GlcNAc(b1-3)Gal(b1-4)GlcNAc(b1-6)[GlcNAc(b1-3)]Gal(b1-4)GlcNAc
Outline: as §1

GlcNAc(b1-3)GalNAc = target: GlcNAc(b1-3)GalNAc
Outline: as §1

GlcNAc(b1-3)Man = target: GlcNAc(b1-3)Man
Outline: as §1

[8] = target: GlcNAc(b1-3)[GlcNAc(b1-4)][GlcNAc(b1-6)]GlcNAc
Outline: as §1

[9] = target: GlcNAc(b1-3)[GlcNAc(b1-6)]Gal(b1-4)GlcNAc
Outline: as §1

[10] = target: GlcNAc(b1-3)[GlcNAc(b1-6)]GalNAc
Outline: as §1

[11] = target: GlcNAc(b1-4)Gal(b1-4)GlcNAc
Outline: as §1

GlcNAc(b1-4)GlcNAc = target: GlcNAc(b1-4)GlcNAc
Outline: as §1

[12] = target: GlcNAc(b1-4)GlcNAc(b1-4)GlcNAc
Outline: as §1

[13] = target: GlcNAc(b1-4)GlcNAc(b1-4)GlcNAc(b1-4)GlcNAc(b1-4)GlcNAc
Outline: as §1

[14] = target: GlcNAc(b1-4)GlcNAc(b1-4)GlcNAc(b1-4)GlcNAc(b1-4)GlcNAc(b1-4)GlcNAc
Outline: as §1

[15] = target: GlcNAc(b1-4)[GlcNAc(b1-6)]GalNAc
Outline: as §1

[16] = target: GlcNAc(b1-6)Gal(b1-4)GlcNAc
Outline: as §1

GlcNAc(b1-6)GalNAc = target: GlcNAc(b1-6)GalNAc
Outline: as §1

[17] = target: GlcNAc6S(b1-3)Gal(b1-4)GlcNAc
Outline: as §1

Kdn(a2-3)Gal(b1-3)GalNAc = target: Kdn(a2-3)Gal(b1-3)GalNAc
Outline: as §1

Kdn(a2-3)Gal(b1-3)GlcNAc = target: Kdn(a2-3)Gal(b1-3)GlcNAc
Outline: as §1

Kdn(a2-3)Gal(b1-4)Glc = target: Kdn(a2-3)Gal(b1-4)Glc
Outline: as §1

Kdn(a2-3)Gal(b1-4)GlcNAc = target: Kdn(a2-3)Gal(b1-4)GlcNAc
Outline: as §1

[18] = target: Kdn(a2-3)Gal(b1-4)[Fuc(a1-3)]GlcNAc
Outline: as §1

Kdn(a2-6)Gal(b1-4)GlcNAc = target: Kdn(a2-6)Gal(b1-4)GlcNAc
Outline: as §1

[19] = target: Man(a1-2)Man(a1-2)Man(a1-3)Man
Outline: as §1

[20] = target: Man(a1-2)Man(a1-2)Man(a1-6)[Man(a1-3)]Man
Outline: as §1

Man(a1-2)Man(a1-3)Man = target: Man(a1-2)Man(a1-3)Man
Outline: as §1

[21] = target: Man(a1-2)Man(a1-3)[Man(a1-2)Man(a1-6)]Man
Outline: as §1

[22] = target: Man(a1-2)Man(a1-3)[Man(a1-2)Man(a1-6)]Man(a1-6)[Man(a1-2)Man(a1-2)Man(a1-3)]Man
Outline: as §1

[23] = target: Man(a1-2)Man(a1-3)[Man(a1-2)Man(a1-6)]Man(a1-6)[Man(a1-2)Man(a1-2)Man(a1-3)]Man(b1-4)GlcNAc(b1-4)GlcNAc
Outline: as §1

[24] = target: Man(a1-2)Man(a1-3)[Man(a1-6)]Man(a1-6)[Man(a1-2)Man(a1-3)]Man(b1-4)GlcNAc(b1-4)GlcNAc
Outline: as §1

[25] = target: Man(a1-2)Man(a1-6)[Man(a1-3)]Man(a1-6)[Man(a1-2)Man(a1-2)Man(a1-3)]Man
Outline: as §1

[26] = target: Man(a1-2)Man(a1-6)[Man(a1-3)]Man(a1-6)[Man(a1-2)Man(a1-2)Man(a1-3)]Man(b1-4)GlcNAc(b1-4)GlcNAc
Outline: as §1

Man(a1-3)[Man(a1-6)]Man = target: Man(a1-3)[Man(a1-6)]Man
Outline: as §1

B1: LlpA (Arthrobacter sp) (protein)
chain: MGSSHHHHHHSSGLVPRGSHMTLHPETALRPGAAATSPNSRYRLLYQTDGNLVLYGPDGPLWDSGTNGHGAGACIMQADGNLVLYGPNDEYVWDTETDNNPGSRLVIQDDGNAVIYRPDGSPLWATETCQPPGSADSHVLQSGSTLTPTHGIRSANGLYGLLYQTDGNLVFYGPDGPLWDSGTNGRGAGACIMQPDGNLVLYGPHDEYVWDTETDNNPGSRLVIQDDGNAVIYRPDGNPTWVTGTH
[1]
  glycan array binding signal (z-score): 1.82
[2]
  glycan array binding signal (z-score): 0.18
[3]
  glycan array binding signal (z-score): 1.61
[4]
  glycan array binding signal (z-score): 0.884
[5]
  glycan array binding signal (z-score): -0.319
[6]
  glycan array binding signal (z-score): 0.23
[7]
  glycan array binding signal (z-score): -0.695
GlcNAc(b1-3)GalNAc
  glycan array binding signal (z-score): 0.451
GlcNAc(b1-3)Man
  glycan array binding signal (z-score): 1.02
[8]
  glycan array binding signal (z-score): -0.817
[9]
  glycan array binding signal (z-score): 1.12
[10]
  glycan array binding signal (z-score): -0.373
[11]
  glycan array binding signal (z-score): 0.483
GlcNAc(b1-4)GlcNAc
  glycan array binding signal (z-score): 0.312
[12]
  glycan array binding signal (z-score): -0.587
[13]
  glycan array binding signal (z-score): 0.068
[14]
  glycan array binding signal (z-score): -0.221
[15]
  glycan array binding signal (z-score): -0.713
[16]
  glycan array binding signal (z-score): 1.33
GlcNAc(b1-6)GalNAc
  glycan array binding signal (z-score): 0.293
[17]
  glycan array binding signal (z-score): 1.25
Kdn(a2-3)Gal(b1-3)GalNAc
  glycan array binding signal (z-score): 0.507
Kdn(a2-3)Gal(b1-3)GlcNAc
  glycan array binding signal (z-score): 0.196
Kdn(a2-3)Gal(b1-4)Glc
  glycan array binding signal (z-score): -0.782
Kdn(a2-3)Gal(b1-4)GlcNAc
  glycan array binding signal (z-score): -0.236
[18]
  glycan array binding signal (z-score): -1.12
Kdn(a2-6)Gal(b1-4)GlcNAc
  glycan array binding signal (z-score): 0.328
[19]
  glycan array binding signal (z-score): -0.521
[20]
  glycan array binding signal (z-score): -0.486
Man(a1-2)Man(a1-3)Man
  glycan array binding signal (z-score): -1.26
[21]
  glycan array binding signal (z-score): -1.05
[22]
  glycan array binding signal (z-score): -0.119
[23]
  glycan array binding signal (z-score): -0.452
[24]
  glycan array binding signal (z-score): -0.796
[25]
  glycan array binding signal (z-score): -0.328
[26]
  glycan array binding signal (z-score): 0.31
Man(a1-3)[Man(a1-6)]Man
  glycan array binding signal (z-score): 0.327
